# Experimental data: PubChem BioAssay AID1224826 (NIAID, 2016)
# Assay: 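Genes that change LPS-induced Tnf promoter activity in mouse macrophages when knocked down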 (primary screen)
# Cell system: RAW264.7 G9 macrophages from mouse bearing reporters for p65 (GFP) and the Tnf promoter (mCherry)
# Reagent: siRNA pool against mouse genes, 100 nM
# Duration: 16 h of LPS stimulation, after 2 days of siRNA transfection
# Conditions: bacterial lipopolysaccharide (Salmonella minnesota R595), 10 ng/ml
# Measurement: 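Imaged Tnf reporter mCherry in nuclei, minus background, normalised per plate to the median and expressed as robust z-scores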
# Reading the numbers: Tnf reporter robust z-score: higher = stronger Tnf promoter reporter signal after LPS; Tnf reporter intensity: higher = stronger Tnf promoter reporter signal
# Call rule: 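a well counts as active at a score of -1.3 or below (Tlr4 knock-down control median) or above 3 (raised signal); controls and wells holding fewer than 50 cells are excluded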
# Calls: active = Tnf reporter clearly lowered or raised; inactive = no clear change in Tnf reporter
# In all, the deposit lists about 17,000 reagents; below is a part drawn at random. In the full data, about 1,110 (6.6%) got an active call. 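Active means lowered or raised reporter signal; replicate intensities are raw and not normalised per plate.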 Entries without a mark were called inactive.
Target gene,Tnf reporter robust z-score,fewer than 50 cells in well,"Tnf reporter intensity, replicate 1","Tnf reporter intensity, replicate 2"
Rhox3a,,fewer than 50 cells per well; well left out of calls,141,92.4
Slc12a1,-0.3,enough cells in well,211,119
Or52r1,,fewer than 50 cells per well; well left out of calls,0,44.2
Mpc1,-0.75,enough cells in well,90.5,120
Secisbp2l,,fewer than 50 cells per well; well left out of calls,25.9,51.5
Clec5a,-0.62,enough cells in well,104,175
Or10g9,,fewer than 50 cells per well; well left out of calls,20.3,125
Orc6,-0.37,enough cells in well,196,171
Fshb,-0.71,enough cells in well,214,161
Dusp11,-0.34,enough cells in well,217,170
Gatm,-0.61,enough cells in well,219,173

Next part; the last 2 above are carried over.
Target gene,Tnf reporter robust z-score,fewer than 50 cells in well,"Tnf reporter intensity, replicate 1","Tnf reporter intensity, replicate 2"
Dusp11,-0.34,enough cells in well,217,170
Gatm,-0.61,enough cells in well,219,173
Krtap9-3,,fewer than 50 cells per well; well left out of calls,61.2,36.1
Yju2,,fewer than 50 cells per well; well left out of calls,172,83.6
Tas2r129,4.8 (active),enough cells in well,300,140
Tcof1,0.27,enough cells in well,251,148
Klf1,0.6,enough cells in well,244,213
Ralgapa1,-1.43 (active),enough cells in well,123,73.9
Zfp786,-0.9,enough cells in well,120,106
Psma7,,fewer than 50 cells per well; well left out of calls,102,278
Pbxip1,-0.58,enough cells in well,184,154
Smpd2,,fewer than 50 cells per well; well left out of calls,83.2,113
Nanos1,-1.03,enough cells in well,145,41.2
Or4c116,-0.35,enough cells in well,161,136
Or2y1f,-1.04,enough cells in well,146,58.2
